Measured values from US20030229114A1, “Pyrroloquinoline quinone drugs as a neuroprotectant and methods of use thereof” (priority 2002, published 2003).

Experiment: Assay of H2O2 produced by the reaction of SIN-1 with SOD or PQQ
Format: biochemical
Conditions: SIN-1 1 mM with SOD 100 units/ml or PQQ 100 μM; catalase background subtracted
Method: The method described by Yakes and Van Houten (1997) was used, exploiting the oxidation of o-diansidine dihydrochloride (o-DD, Sigma D-3252) in the presence of horseradish peroxidase (Sigma P-8250). Briefly, SIN-1 (1 mM) was incubated with SOD (100 units/ml) or PQQ (100 μM) in the absence or presence of catalase (100 units/ml) in EBSS for various times. Then o-DD was added to a final concentration of 250 μM and 2.5 units/ml horseradish peroxidase were added. After 1 hr incubation at 37° C., the absorbance at 470 nm was measured. The concentration of H2O2 in samples was calculated based on a standard curve obtained by the reaction of various concentrations of H2O2 with o-DD and horseradish peroxidase.

Row | Molecule | H2O2 concentration four hours after reaction with SIN-1
1 | O=C(O)c1cc(C(=O)O)c2c(n1)C(=O)C(=O)c1cc(C(=O)O)[nH]c1-2 [PQQ, Pyrroloquinoline quinone] | 14.3 ± 4.3 µM and 27 ± 0.8 µM
2 | SOD: bovine superoxide dismutase | 110 ± 12.4 µM and 85.2 ± 0.2 µM

Several values for one entry are separate records, joined by “and”; a condition that tells them apart may be missing. Equal entries are not always repeated.
